Laboratory results as given in patent US7696203B2, “DNA-PK inhibitors” (Kudos Pharmaceuticals Limited, priority 2005, dated 2010).
Some of these results come from one statement about several compounds together.

Tested on: HeLa cells
Experiment: Survival Enhancement Ratio (clonogenic survival after 2 Gray irradiation)
Format: cell-based, human
Conditions: inhibitor at fixed concentration of 500 nM
Description: Survival Enhancement Ratio
The Survival Enhancement Ratio (SER) is a ratio of the enhancement of cell kill elicited by the DNA-PK inhibitor after 2 Grays of irradiation compared to unirradiated control cells. […] Radiation was delivered by a Faxitron 43855D machine at a dose rate of 1 Gy pre minute The SER at 2 Gray irradiation was calculated from the formula:
The degree of cell killing was monitored by a standard clonogenic survival assay. Briefly, tissue culture treated 6-well plates were seeded with HeLa cells at an appropriate concentration to give 100-200 colonies per well and returned to the incubator in order to allow the cells to attach. Four hours later, compound or vehicle control was added to the cells. The cells were then incubated for 1 hour in the presence of inhibitor prior to irradiation at 2 Gray using a Faxitron 43855D cabinet X-ray machine. The cells were then incubated for a further 16 hours before the media was replaced with fresh media in the absence of DNA-PK inhibitor. After 8 days, colonies formed were fixed and stained with Giemsa (Sigma, Poole, UK) and scored using an automated colony counter (Oxford Optronics Ltd, Oxford, UK). The data was calculated as described above.

SMILES | SER (Survival Enhancement Ratio)
Nc1ccc(-c2cccn3c(=O)cc(N4CCOCC4)nc23)c2sc3ccccc3c12 [Compound 23, 9-(1-Amino-dibenzothiophen-4-yl)-2-morpholin-4-yl-pyrido[2,1-a]pyrimidin-4-one] | ≥ 2
O=c1cc(N2CCOCC2)nc2c(-c3ccc([N+](=O)[O-])c4c3sc3ccccc34)cccn12 [Compound 22, 9-(1-Nitro-dibenzothiophen-4-yl)-2-morpholin-4-yl-pyrido[2,1-a]pyrimidin-4-one] | ≥ 2
O=c1cc(N2CCOCC2)[nH]c2c(-c3ccc([N+](=O)[O-])c4c3sc3ccccc34)cccc12 [Compound 24, 2-Morpholin-4-yl-8-(1-nitro-dibenzothiophen-4-yl)-1H-quinolin-4-one] | ≥ 2
Nc1ccc(-c2cccc3c(=O)cc(N4CCOCC4)[nH]c23)c2sc3ccccc3c12 [Compound 25, 8-(1-amino-dibenzothiophen-4-yl)-2-morpholin-4-yl-1H-quinolin-4-one] | ≥ 2
O=c1cc(N2CCOCC2)nc2c(-c3ccc(O)c4c3sc3ccccc34)cccn12 [Compound 31, 9-(1-Hydroxy-dibenzothiophen-4-yl)-2-morpholin-4-yl-pyrido[2,1-a]pyrimidin-4-one] | ≥ 2
